Experimental data: article PMC9425029, “Secretagogin is a Ca^2+-dependent stress-responsive chaperone that may also play a role in aggregation-based proteinopathies” (The Journal of Biological Chemistry, 2022)
These are yes or no findings as the source states them, for the method shown. Where a sequence is shown, tags or fusion partners need not be part of it.

Molecular target: Secretagogin (mouse SCGN) (mouse) (UniProt Q91WD9)
Test: SAXS; reducing conditions (5 mM DTT), SCGN about 5-18 mg/ml, without or with 8 mM Ca2+; 50 mM Tris pH 7.5, 100 mM KCl; both purified

B1: Secretagogin (mouse SCGN) (natural protein, UniProt Q91WD9 1-276, looked up)
chain: MDNARRKTPARLDAACFWQIWQRFDKEEKGYIRETELDAFFDHLLAKSGTEDTLMEENVQKVKEQLMTSHNVSKEGRILMKELASMFLSEDENFLLFFRLETPLDNSVEFMQIWRKYDADSSGFISAAELCNFLRDLFLHHKKNISEAELEEYTSTMMKIFDKNKDGRLDLNDLARILALQENFLLQFKMDASSTEERKRDFEKIFAHYDVSKTGALEGPEVDGFVKDMMELVQPSISGVDLDKFREILLRHCDVNKDGKIQKSELALCLGLKINP
notes: secretagogin, mouse, cloned in pET21b; Used Ca2+-free (apo) or with Ca2+ (holo); the assays tell them apart; also called apo-SCGN; holo-SCGN; source: E. coli BL21-DE3 (pET21b), purified (Ni-NTA-Sepharose, size-exclusion chromatography), decalcified with EDTA
B1 was tested, and the binding was “no binding (condition: reducing conditions (5 mM DTT))”.
